Test results from paper doi:10.1101/2023.03.17.532992.

System: BCL7A (Homo sapiens)
Assay: EMSA
Conditions: residues 1-231

Sequence	binding result	binding result (5-methyl-C (CpG methylation) at C4 and C8 of both strands)
CATGCATGACTG (double strand) [12_mix_Blunt]	binds	–
CATGCATGACTG / TCAGCAGTCATGCATG [12_mix_5oh]	binds	–
CATGCATGACTGTCAG / CAGTCATGCATG [12_mix_3oh]	binds	–
GGGCGGCCGCCC (double strand) [12_CpG]	binds	–
GGGCGGCCGCCC (double strand) [12_CpGme2]	–	binds
GGGGGGCCCCCC (double strand) [12_GpC]	binds	–
TTTTTATTAATAAAAA (double strand) [16_ATrich]	binds	–

For at least one entry, the source does not settle the construct or the ends of the probe. At least one verdict was read from the data and is not stated in words by the source.
